Consider two molecules from patent US20110300100A1 (CSL, published 2011).

Results are given in words; binding and its absence hold for the method and conditions named. Some binding calls cover weakened binding; strength is not graded here. Sequences can lack the tags named with a protein.

In assay [1] the target is T1, mIL-11Rα-Fc (murine, UniProt Q64385 24-372).
T1 construct: Coated on the ELISA plates; not shown: Fc part of the bought fusion protein
T1 sequence (looked up): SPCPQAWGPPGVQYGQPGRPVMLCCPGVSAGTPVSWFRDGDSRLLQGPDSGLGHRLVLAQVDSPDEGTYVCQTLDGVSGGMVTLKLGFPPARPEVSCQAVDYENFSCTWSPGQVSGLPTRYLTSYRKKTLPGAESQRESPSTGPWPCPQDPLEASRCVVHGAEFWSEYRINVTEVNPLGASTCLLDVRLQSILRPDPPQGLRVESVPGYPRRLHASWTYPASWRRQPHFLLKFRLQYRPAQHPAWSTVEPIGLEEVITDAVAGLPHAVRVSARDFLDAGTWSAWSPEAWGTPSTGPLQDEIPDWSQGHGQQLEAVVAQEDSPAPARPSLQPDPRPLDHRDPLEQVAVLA
Nature of the assay: capture ELISA on coated mIL-11Rα-Fc, detection with biotinylated anti-mIL-11.

Assay [2] concerns the target T1, mIL-11Rα-Fc. The assay can be described thus: comparison with full-length 1.21; assay not named.
The target in assay [3] is T1, mIL-11Rα-Fc. Nature of the assay: competition ELISA, soluble protein against phage displayed IL-11 variants on coated mIL-11Rα-Fc. Here is the method:
The affinity of the selected IL-11 mutants for IL-11Rα was determined in a competition ELISA experiment. […] After incubation for 2 hours at room temperature, the plates were washed and bound phage were then labeled with an anti-M13 polyclonal antibody conjugated to horseradish peroxidase. After the removal of excess antibody by washing with PBS containing 0.05% Tween 20, TMB substrate was added to each well and incubated for 10 minutes before the reaction was quenched by the addition of 2M phosphoric acid. Absorbance at 450 nm was then determined for each well by analysis on a microtitre plate reader.
Clear differences were observed between the affinities of the mIL-11-W147A and mutant proteins for binding to IL-11Rα-Fc.

B1: non-PEGylated thrombin cleaved mutein 1.21 (amino acids 10-178 of SEQ ID NO:10) (ligand)
chain: VSSDPRADLDSAVLLTRSLLADTRQLAAQMRDKFPADGDHSLDSLPTLPAIDYTLGSLQLPGVLTRLRVDLMSYLRHVQWLRRAGGPSLKTLEPELGALQARLERLLRRLQLLMSRLALPQAAPDQPVIPLGPPASAAGSIRAAHAILGGLHLTLDWAVRGLLLLKTRL
As to B1, the binding result in assay [1] and in assay [2] was “binds” throughout.

B2: mIL-11-W147A, N-terminal hexahistidine-tagged (ligand, not shown: small tags and cut ends)
chain: PGPPAGSPRVSSDPRADLDSAVLLTRSLLADTRQLAAQMRDKFPADGDHSLDSLPTLAMSAGTLGSLQLPGVLTRLRVDLMSYLRHVQWLRRAGGPSLKTLEPELGALQARLERLLRRLQLLMSRLALPQAAPDQPVIPLGPPASAAGSIRAAHAILGGLHLTLDWAVRGLLLLKTRL
As for B2, in assay [3], the binding result is listed as “binds”.
